The test deals with ribosomal protein eL41 of Pyrococcus abyssi, found in the 30S subunit (P. abyssi). The experiment in a line: cryo-EM structure; IC2 complex (Pa-30S:mRNA:aIF1A:aIF2:GDPNP:Met-tRNAi) purified on TALON by N-terminally tagged aIF2β and aIF2α; overall 3.2 Å, classes IC2A 4.2 Å and IC2B 3.3 Å; aIF1A and aIF2 placed by rigid body fitting; both purified.

The record followed here is PMC7005279, “Cryo-EM study of an archaeal 30S initiation complex gives insights into evolution of translation initiation” (Communications Biology, 2020).

These are yes or no findings as the source states them, for the method shown. A result given as binding can be weak or reduced; the word gives no strength.

B1: gamma subunit of translation initiation factor aIF2 from Pyrococcus abyssi (protein, UniProt Q9V1G0 1-411)
chain: MGEKRKSRQAEVNIGMVGHVDHGKTTLTKALTGVWTDTHSEELRRGITIKIGFADAEIRRCPNCGRYSTSPVCPYCGHETEFVRRVSFIDAPGHEALMTTMLAGASLMDGAILVIAANEPCPRPQTREHLMALQIIGQKNIIIAQNKIELVDKEKALENYRQIKEFIEGTVAENAPIIPISALHGANIDVLVKAIEDFIPTPKRDPNKPPKMLVLRSFDVNKPGTPPEKLVGGVLGGSIVQGKLKVGDEIEIRPGVPYEEHGRIKYEPITTEIVSLQAGGQFVEEAYPGGLVGVGTKLDPYLTKGDLMAGNVVGKPGKLPPVWDSLRLEVHLLERVVGTEQELKVEPIKRKEVLLLNVGTARTMGLVTGLGKDEIEVKLQIPVCAEPGDRVAISRQIGSRWRLIGYGIIKE
As to B1, the binding entry is “binds”.
